Reference: the supplement of paper PMC12889115
This is one part of the list. These are raw signals, not scaled to a control.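 In the initial screen, polymyxin B was used at a concentration that permeabilizes Salmonella's outer membrane but not its inner membrane. Maximum growth was set by DMSO wells with or without polymyxin B. Since plates varied, data were ranked per plate, and compounds giving the lowest OD600 advanced as hits.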

Tested on: Salmonella enterica serovar Typhimurium SL1344
Assay: bacterial growth OD600 after 18 h with compound and polymyxin B; higher = more bacterial growth (less inhibition)
Conditions: 50 µM, Mueller-Hinton broth

| Structure (SMILES) | bacterial growth OD600 (polymyxin B 0.75 µg/mL) | bacterial growth OD600 (polymyxin B 1 µg/mL) |
| --- | --- | --- |
| CCC1(CC)CC1C(=O)N1CCc2c(C(=O)NCc3ccc4c(c3)OCO4)c(OC)cc(=O)n2CC1 (stereo not given) | 0.807 | – |
| COc1cccc(-c2ccc(NC(=O)C3CCCN(C(=O)C4CCC4)C3)cc2)c1 (stereo not given) | – | 0.163 |
| c1ccc2c(c1)CC(NCc1ccc(-n3cccn3)cc1)CO2 (stereo not given) | 0.534 | – |
| O=C(N[C@@H]1c2ccccc2C2(CCN(C(=O)/C=C/c3ccc(F)cc3)CC2)[C@H]1O)c1ccccc1 | 0.501 | – |
| CC(C)N(Cc1cn(Cc2ccccc2)nc1-c1cc2ccccc2o1)CC1CCC(=O)N1 (stereo not given) | – | 0.52 |
| CCOc1ccc2nc(N3CCCN(Cc4c(C)nn(CC)c4C)CC3)nc(C)c2c1 | 0.761 | – |
| CC(C)CN1CCC(C2CCN(Cc3cccn3-c3nccs3)C2)CC1 (stereo not given) | 0.868 | – |
| Cc1c[nH]c(CN(C)C(=O)c2ccc(OC3CCN(S(C)(=O)=O)CC3)c(Cl)c2)n1 | – | 0.955 |
| CC#CCN1C(=O)NC(CCc2ccccc2)(C2CCN(C(=O)C#CC)CC2)C1=O (stereo not given) | 0.873 | – |
| Clc1ccccc1Cc1noc(CN2CCN(c3cnccn3)CC2)n1 | – | 0.991 |
| CCn1ccnc1CN1CCCC(N2CCN(c3ccccc3C)CC2)C1 (stereo not given) | – | 0.916 |
| CN(Cc1cnn(C)c1)C(=O)c1cc(COc2cccc(C(F)(F)F)c2)[nH]n1 | 0.773 | – |
| CCCN1CCCC1C(=O)Nc1cccc(-n2cccn2)c1 (stereo not given) | – | 0.932 |
| CN(CCc1cn[nH]c1)c1nc2nonc2nc1N1CCCC1 | – | 1.04 |
| CCC(COC)NC(=O)c1cc(COc2cccc(OC)c2)on1 (stereo not given) | – | 1.15 |
| COc1cccc(OCc2nc(C(=O)N3CC[C@@H]4CCCC[C@H]4C3)co2)c1 | – | 0.487 |
| CN(C)CCN(CC1CCCN(Cc2ccccc2F)C1)C(=O)C1(C(N)=O)CC1 (stereo not given) | 0.835 | – |
| CCO[C@H]1[C@H](NC(=O)c2cccnc2)c2ccccc2C12CCN(C(=O)c1cc(C(C)C)on1)CC2 | 0.811 | – |
| O=C(NCc1cccnc1)c1coc(COc2cccc(C(F)(F)F)c2)n1 | – | 0.852 |
| O=C(CCc1nnc(-c2ccc3c(c2)OCO3)o1)NCCCc1ccccc1 | – | 0.98 |

Not a retest: an excerpt of the list.

| Structure (SMILES) | bacterial growth OD600 (polymyxin B 0.75 µg/mL) | bacterial growth OD600 (polymyxin B 1 µg/mL) |
| --- | --- | --- |
| O=C(N[C@@H]1c2ccccc2C2(CCN(C(=O)/C=C/c3ccc(F)cc3)CC2)[C@H]1O)c1ccccc1 | 0.501 | – |
| CC(C)N(Cc1cn(Cc2ccccc2)nc1-c1cc2ccccc2o1)CC1CCC(=O)N1 (stereo not given) | – | 0.52 |
